The record followed here is publication PMC11482093.

One may read the pKd as the negative decadic logarithm of the Kd, by convention in mol/L. A high value points to a low Kd.

For the data set, the target named is cardiac troponin I (cTnI) (UniProt P19429). Briefly: binding assay. The conditions noted are these: value from ref 33, aptamer used here as receptor on SOI-biosensor; Aptamer folded in 0.15 M NaCl, 50 mM K-Na phosphate pH 7.0, 1 mM MgCl2 (90 C 5 min, then room temperature 15 min); single-stranded DNA.

pKd: −log10 of the molar value. The exact form of at least one protein or probe is not confirmed.

“GGAAGACAAGACATCGGGAGGGAGGGAGGGCAGTCTAGTCTCATGTGTTTCCATGGTTC [TnAp12t2]” had a pKd of 8.22.
